Laboratory results reported in patent US20040170714A1, “Bauhinia extracts” (priority 2001, published 2004).
For at least one compound, name, drawing or mass did not settle the structure.

Experiment: Studies on isoquercetin: hypoglycemic activity
Conditions: isoquercetin alone

For O=c1c(O[C@@H]2O[C@H](CO)[C@@H](O)[C@H](O)[C@H]2O)c(-c2ccc(O)c(O)c2)oc2cc(O)cc(O)c12 [isoquercetin], the hypoglycemic activity was “measurable hypoglycemic activity”.
